Source: PubChem BioAssay AID1347423 (Functional Genomics Laboratory (NCATS/FGL), 2020)
The campaign covered roughly 52,000 sequences. About 210 (0.4%) were called active.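 The calls were made as follows: active = gene whose silencing raises cell survival under the drug, median off-target-corrected z-score across its silencing RNAs 2 or more; inactive = the rest.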 The list shows a part of the results.

Assay: Resistance to Poly (ADP-Ribose) Polymerase inhibitor: Gene Identification via Genome-wide siRNA Screen
Settings: mouse BRCA2 R2336H ES cells, olaparib, CellTiter-Glo viability; active compounds read high
Summary of the method: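 Genome-wide siRNA screen (3 siRNAs/gene, 20 nM) in mouse ES cells carrying hypomorphic BRCA2 R2336H; olaparib 500 nM added 48 h post-transfection, CellTiter-Glo viability 72 h later. Normalized to plate-median negative control; MAD z-scores, gene median, seed-adjusted.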

Row | Sequence | z-score
1 | GGGAGAUUCUAUGAGGACUTT against Depdc5 | inactive: 0.365
2 | CCCAAUACAUAUGUUAAGUTT against Syt14 | inactive: 1.05
3 | GGACUCCUUCCACCACAAUTT against Amid | inactive: 0.0312
4 | GGUAACAUGGCAGAUUUUATT against 2810003C17Rik | inactive: 0.782
5 | GGACAGCCGUGUAGUAACCTT against Cpne1 | inactive: -0.577
6 | GGUAUGACUUGCUCUUUAUTT against Rnpep | inactive: 0.858
7 | GCUCUUCCGAUUAAUGCAGTT against Gabra6 | inactive: 0.459
8 | GCGAUCCACGAGAAACAGATT against 3110038B19Rik | inactive: 0.617
9 | GGAAUUUCACCUAAAUUGATT against Blzf1 | inactive: 0.355
10 | GGACUUUUUCAAAGGUUUUTT against Eif4g3 | inactive: -1.38
11 | GGUAUUCACAAAGAGAUACTT against D13Ertd275e | inactive: 0.596
12 | GGAAUCGCUAUUUCUGAUATT against Sgk3 | inactive: 0.46
13 | GGAUAUUUGUGUUCCUAAGTT against V1ri9 | inactive: -0.283
14 | GCGAUUACACCACAAACCATT against Cth | inactive: -1.64
15 | CGAGAUUGGAGUCAUGUUUTT against Adcy3 | inactive: 1.26
16 | GGAACUUCUACAGUCCUCCTT against BC055447 | inactive: 0.621
17 | GGAGGAGUUGCACCUCAUCTT against Pctk3 | inactive: 0.655
18 | GGAGUACGACUACUACGGUTT against Sfrp5 | inactive: 2.17
19 | GGUACGCAUUCCACAGUUCTT against Tbx10 | inactive: -0.347
20 | CCUUUACUUCACUCUUAGCTT against Kiaa0298-hp | inactive: 0.134
21 | CCCUCUUUUCGUUUUCUACTT against 1700129C05Rik | inactive: 0.137
22 | GCUAUUAGGAAAUGAAAGATT against Ncald | inactive: 1.27
23 | GCACAGGACUGAUGCUAAGTT against 9530020G05Rik | inactive: 1.84
24 | CGGACAAGUGUUUUUCGUUTT against Wwox | inactive: 0.356
25 | CCGUAGAAAUACCAUAGACTT against Cables1 | inactive: 1.94
26 | GGUACACCCUAGGAAAGAUTT against Pbxip1 | inactive: -0.435

Row | Sequence | z-score
27 | GGAUAUGCAGUGGAACUAUTT against Heph | inactive: -0.716
28 | GGCAGUUAAUUUCUUUGGATT against Ica1 | inactive: 0.513
29 | GGAUUGCCCUGUGGACAAGTT against Nr4a1 | inactive: -0.983
30 | GGGUUCAGAGGUCAUCAACTT against 1810054G18Rik | inactive: -0.296
31 | GAAAUGUGGAAAGACACUGTT against Crip1 | inactive: 1.66
32 | GUGUGGCUCUUAUGUACCUTT against Olfr427 | inactive: 0.701
33 | GGCAAAGGAUAGUGGACAATT against Clic1 | inactive: 2.48
34 | GUGAGUAGGUAGGAAGCAUTT against Cd200r2 | inactive: 0.207
35 | CACGCAGAUGAUUAAGUUGTT against Olfr1000 | inactive: 0.555
36 | CCUUGCCAAGACAGAAUAUTT against Pramel3 | inactive: 0.255
37 | GGUUUUCAGCUGCAUCAUGTT against Olfr303 | inactive: 1.04
38 | CCUCUGGAUCUACGAGCUGTT against Odf4 | inactive: -0.535
39 | GCUACUAACCAUCGGCUUCTT against 1700067K01Rik | inactive: -1.07
40 | CGGAAACGAAGACUUGAAATT against 9330140K16Rik | inactive: 1.08
41 | GGGAGAGCGAGGAAGAUAATT against Sox9 | inactive: -0.655
42 | UCUCAAAGACGAAUAUCAUTT against Olfr875 | inactive: 1.01
43 | GGCGACGUACCAUCACCUATT against Senp3 | inactive: 0.37
44 | GCAUGUUUCUAAACUUAGUTT against Sh3rf2 | inactive: -0.444
45 | CCAUUUUUGCUCAAUUUGCTT against Eif1ay | inactive: -0.333
46 | GCAAAGUUGAGUGCACUUATT against Scrn1 | inactive: -0.0844
47 | GAGCCAAGUACCAUCUAUATT against Olfr389 | inactive: -0.306
48 | GGUAUGUCUGAUGCAUAGGTT against Mos | inactive: 0.526
49 | GGAGAAGAUAAAAUGGAUGTT against Ptbp2 | inactive: 0.496
50 | GGUAUUCUUCUGUCUAUGATT against Olfr1107 | inactive: -0.814
51 | CCUGUGGAUCCAUUUGUUCTT against Tex15 | inactive: -0.494
52 | CCUAGAGUACUAUUAAAAGTT against Srrm2 | inactive: 0.352

Records 17 to 18, reprinted for reference:
Row | Sequence | z-score
17 | GGAGGAGUUGCACCUCAUCTT against Pctk3 | inactive: 0.655
18 | GGAGUACGACUACUACGGUTT against Sfrp5 | inactive: 2.17
